# Results from patent US20220042018, “APTAMERS AND THE USE THEREOF IN THE TREATMENT OF CANCER” (FUNDACIÓn PARA LA INVESTIGACIÓn BIOMÉDICA …, published 2022).
# Tests used:
# [1] = test system: MNK1ΔCt (MNK1 C-terminal deletion mutant); assay: ELONA; conditions: 20 nM aptamer, binding not significant; recognised in denaturing apta-western (FIG. 6A); purified recombinant protein; protein details: GST fusion; label: biotin; folded or branched DNA; variant of apMNK2FT
# [2] = test system: MNK1aΔ77 (MNK1a deletion mutant); assay: ELONA; conditions: 20 nM aptamer, binding not significant; recognised in denaturing apta-western (FIG. 6A); purified recombinant protein; protein details: GST fusion; label: biotin; folded or branched DNA; variant of apMNK2FT
sequence,measurement,setting,value
TGGGGTGGGCGGGCGGGGGTGGGGGTGGT [apMNKQ2],binding result,[1],no binding
same,binding result,[2],no binding

# For at least one entry, the source does not settle the construct or the ends of the probe. A negative result means that nothing was seen under these conditions.
